Hit rate of the full screen: of about 300,000 compounds, about 5,400 (1.8%) were called active. Inconclusive means that the source gave no clear call. Such entries were picked first, then a sample of the others. Calls come from the whole dose curve; tested in HEK293 cells. Potencies beside an inconclusive call are fits to weak or partial responses and may not hold up.
experiment: qHTS for inhibitors of binding or entry into cells for Marburg Virus; conditions: Marburg virus pseudotyped entry inhibition, cell reporter; activity change, negative = inhibition: at 37.8 µM (top of the series) unless noted
% is set by controls: 0 for no effect and ±100 for the full control effect; potency is the fitted concentration of half-maximal effect.

With `Cc1ccc(NC(=O)c2ccc(OC(=O)COc3ccc(Cl)c(C)c3)cc2)cc1` as the molecule, how does the Potency read?
Its Potency is inconclusive: 3.55 µM [activator, single point].

Which “activity change, negative = inhibition” value does the source give for `CC(=O)c1ccc(OCCNS(=O)(=O)c2ccc(-n3cnnn3)c(C)c2)cc1` here?
The value was inactive: -23.3% [at 46.1 µM].

Which Potency does the source give for `COc1cccc(-c2nc(NCCN3CCOCC3)c3ccccc3n2)c1O` here?
The Potency was “inactive”.

For `COC(CNC(=O)c1ccc2c(c1)ncn2-c1ccc(F)c(F)c1)OC`, which “activity change, negative = inhibition” value is on record?
The value was inactive: 4.99%.

For `O=C(/C=C/c1ccc2c(c1)OCO2)N1CCOCC1`, which “activity change, negative = inhibition” value is on record?
Its value is inactive: 7.87%.

Which Potency does the source give for `CCCCC(CC(O)COCC(C)C)C(=O)NN` (stereo unspecified) here?
The Potency was inconclusive: 35.5 µM [inhibitor, single point].

Which “activity change, negative = inhibition” value does the source give for `CCOC(=O)C1CCN(C(=O)CNC(=O)Cn2c(C)cc3ccccc3c2=O)CC1` here?
The value was inactive: 1.03% [at 46.1 µM].

Which Potency does the source give for `O=C(Nc1nnc(-c2ccc(F)cc2)o1)c1cccc([N+](=O)[O-])c1` here?
The Potency was inconclusive: 14.1 µM [inhibitor, partial curve, poor fit].

For `CCOC(=O)c1c(C)[nH]c(C)c1C(=O)COC(=O)c1ccc(O)cc1`, which activity change, negative = inhibition is on record?
The activity change, negative = inhibition was inconclusive: 1.45% [activator] [at 46.1 µM].

With `COc1ccc(/C=C2\SC(=O)N(CCNC(=O)Cn3cnnn3)C2=O)cc1` as the molecule, how does the Potency read?
The Potency was inconclusive: 2.31 µM [activator, partial curve].

For `COc1ccc(NC(=O)CN(C)S(=O)(=O)c2ccc3c(c2)CCC(=O)N3)c(OC)c1`, which Potency is on record?
Its Potency is inconclusive: 5.62 µM [activator, single point].

For `CCCCCn1c(=O)[nH]c2cc(C(=O)NCCN3CCC(C)CC3)ccc2c1=O`, which “activity change, negative = inhibition” value is on record?
Its value is inactive: 0.379% [at 46.1 µM].

With `Cc1ccc2nc(SC(C(=O)Nc3ccc(F)cc3)c3ccccc3)[nH]c2c1` (stereo unspecified) as the molecule, how does the Potency read?
Its Potency is inconclusive: 7.94 µM [inhibitor, partial curve].

For `O=C(Nc1ccccc1N1CCN(C(=O)c2ccccc2)CC1)c1cc(Br)ccc1Cl`, which Potency is on record?
The Potency was inconclusive: 29.1 µM [inhibitor, single point].

With `COc1ccc(Nc2nc(NCC3CCCO3)c3ccccc3n2)c(OC)c1` (stereo unspecified) as the molecule, how does the Potency read?
Its Potency is inconclusive: 7.08 µM [inhibitor, partial curve, poor fit].

Which “activity change, negative = inhibition” value does the source give for `COc1ccc(C(CNC(=O)CSc2ccccc2C)N(C)C)cc1` (stereo unspecified) here?
Its value is inactive: -23.1% [at 46.1 µM].

With `CN(c1cccc(NC(=O)CN2C(=O)c3ccccc3S2(=O)=O)c1)S(C)(=O)=O` as the molecule, how does the Potency read?
The Potency was inconclusive: 35.5 µM [inhibitor, single point].

For `COc1cc(S(=O)(=O)N(C)C)ccc1Br`, which “activity change, negative = inhibition” value is on record?
The value was inactive: 19.6%.

Which “activity change, negative = inhibition” value does the source give for `COC(=O)c1cc2oc3ccccc3c2n1CC(=O)Nc1ccccc1OC` here?
The value was inactive: -12%.

With `CC(C)(C)NC(=O)NC(=O)COC(=O)Cc1ccc(Cl)cc1Cl` as the molecule, how does the “activity change, negative = inhibition” value read?
Its value is inactive: -0.511% [at 46.1 µM].

Which Potency does the source give for `Cc1cccc(Nc2c(-c3cccs3)nc3nc(C)cc(C)n23)c1` here?
Its Potency is inconclusive: 3.55 µM [activator, partial curve, poor fit].

— PubChem BioAssay AID540276 (National Center for Advancing Translational Sciences (NCATS), 2011)
